Data as given in PubChem BioAssay AID2685 (National Center for Advancing Translational Sciences (NCATS), 2010).
The other results are listed elsewhere or left out. The main result of the screen is listed elsewhere. These columns were measured beside it and carry no call. Most of these compounds were active or inconclusive in the main read-out, so they are no random draw. Words in brackets tell the shape of the fitted curve; partial curves, single points and poor fits give uncertain potencies.

Experiment: qHTS Assay for Lipid Storage Modulators in Drosophila S3 Cells;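 on cell number change: cells counted by Cell Tracker Red CMTPX staining in the red channel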
Conditions: BODIPY lipid droplet fluorescence, 18-24 h; for cell number change: measured here: cell count max response, cells fed with added oleic acid
Outline: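 Laser-scanning cytometry quantifies lipid droplet accumulation (500–530 nm total intensity; droplet/cell object ratio) in oleic acid-fed (400 uM added) Drosophila S3 cells treated with a concentration series. 20 uM Triacsin C defined 100% inhibition.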

[1] = measured here: lipid fluorescence (Fed channel) AC50, cells fed with added oleic acid
[2] = measured here: cell number channel AC50, cells fed with added oleic acid

| SMILES | cell number change | AC50 [1] | AC50 [2] |
| --- | --- | --- | --- |
| Cc1c(N=Cc2c(O)n(C)c(=O)[nH]c2=O)c(=O)n(-c2ccccc2)n1C | -15.9% | 0.116 µM [falling, single point] | – |
| CC(C)CC(NC(=O)C1CCCCC1)C(=O)N1CCC2(CC1)OCCO2 (stereo not given) | -14.2% | – | – |
| O=C(NCc1cccnc1)C(Cl)(Cl)Cl | – | – | 0.651 µM [rising, single point] |
| CC(=O)OC1CCC2(/C=N/O)C(=CCC3C4CCC(=O)C4(C)CCC32)C1 (stereo not given) | 5.87% | – | – |
| Cc1cc(/C=C2\C(=O)NC(=O)N(c3cccc(Br)c3)C2=O)c(C)n1C | 4% | 3.66 µM [falling, single point] | – |
| COc1ccc(CCN(C)C(=O)Cn2c(=O)oc3ccccc32)cc1OC | – | 2.91 µM [rising, single point] | – |
| c1csc(CN2CCNCC2)c1 | 81.6% | 0.58 µM [rising, single point] | – |
| Cc1cc(OC(C)C(=O)NCc2ccncc2)c2c3c(c(=O)oc2c1)CCCC3 (stereo not given) | -16.5% | 16.4 µM [falling, partial curve, poor fit] | – |
| CC(C)Nc1ccc(Nc2ccccc2)cc1 | -46.5% | – | 32.6 µM [falling, single point] |
| COC(=O)C1=C(c2ccc(F)cc2OCc2ccccc2)C[C@@H]2CC[C@H]1N2C(=O)NC1CCN(Cc2ccccc2)CC1 | -22.9% | – | 4.11 µM [falling, full curve, poor fit] |
| CC1(C)CN(S(=O)(=O)OCC(Cl)(Cl)Cl)C(=O)N1 | 15.2% | 29.1 µM [rising, single point] | – |
| COc1ccc(CCNCc2ccccc2F)cc1 | -20.2% | 2.91 µM [falling, full curve, poor fit] | 3.26 µM [falling, full curve, poor fit] |
| N#CCCn1cc(C(=O)Nc2ccccc2Cl)c(-c2ccc(F)cc2)n1 | -25.2% | – | 4.11 µM [falling, full curve, poor fit] |
| CCOc1ccc(C2C(C#N)=C(N)Oc3c2c(=O)oc2ccccc32)cc1 (stereo not given) | 2.59% | 0.731 µM [falling, single point] | – |
| O=c1[nH]c(=S)[nH]c(O)c1C(c1ccccn1)c1c(O)[nH]c(=S)[nH]c1=O | -48.1% | – | – |
| Cc1cccc(CN2CCN(Cc3ccc(Cl)cc3)CC2)c1 | -42.6% | 20.6 µM [falling, partial curve] | 25.9 µM [falling, partial curve, poor fit] |
| CCN(CC)c1ccc(CNCCc2ccc(F)cc2)cc1 | -5.95% | 0.103 µM [falling, full curve] | 0.326 µM [falling, full curve, poor fit] |
| Cc1cccn2c(NCC3CCCO3)c(C(C)C)nc12 (stereo not given) | 2.69% | 0.58 µM [rising, single point] | – |
| O=C(/C=C/c1ccccc1)c1c(O)n(CCc2ccccc2)c(=O)[nH]c1=O | 6.33% | – | – |
| CCC(=O)N1N=C(c2c(O)n(CCc3ccccc3)c(=O)[nH]c2=O)CC1c1ccc(OC)c(OC)c1 (stereo not given) | -12.6% | – | 0.259 µM [rising, single point] |
| C/C(=N\NC(=O)c1ccccc1)c1c(O)n(Cc2ccccc2)c(=O)[nH]c1=O | 27.2% | – | – |

| SMILES | cell number change | AC50 [1] | AC50 [2] |
| --- | --- | --- | --- |
| COC(=O)C1=C(c2ccc3ccccc3c2)C[C@@H]2CC[C@H]1N2C(=O)NC1CC1 | -35.4% | 2.31 µM [falling, partial curve] | 8.2 µM [falling, full curve, poor fit] |
| Cc1cc(Cl)ccc1OCC(=O)N1CCN(C)CC1 | 9.18% | – | – |
| CCN(CC)CCCC(C)N=C(c1ccccc1)c1c(O)n(C)c(=O)n(C)c1=O (stereo not given) | -1.89% | 0.00651 µM [falling, full curve, poor fit] | – |
| O=C(c1cc2c(s1)-c1ccccc1OC2)N1CCC2(CC1)OCCO2 | – | 6.51 µM [rising, single point] | – |
| O=C1CN(O)C(c2ccccc2)=c2cc(Br)ccc2=N1 | 1.35% | – | – |
| C=CCn1c(O)c(N=Nc2c(C)n(C)n(-c3ccccc3)c2=O)c(=O)[nH]c1=S | – | 11.6 µM [falling, partial curve, poor fit] | – |
| Cc1cccc(C(=O)N(NC(=O)Oc2ccccc2)C(C)(C)C)c1 | – | – | 6.51 µM [rising, single point] |
| COc1cccc(N2C(=O)/C(=C/c3ccc(C)o3)C(=O)NC2=S)c1 | -31% | 6.51 µM [rising, partial curve, poor fit] | 23.1 µM [falling, single point] |
| CCn1c(C)c(C(=O)NCCc2ccccc2)c2cc(OC)ccc21 | 20.6% | – | – |
| CC1CN(c2ccc([N+](=O)[O-])c3cccnc23)CC(C)N1 (stereo not given) | 169% | – | – |
| O=C(c1ccc2nc(-c3ccco3)c(-c3ccco3)nc2c1)N1CCC2(CC1)OCCO2 | – | – | 6.51 µM [rising, single point] |
| Cc1cccc(C)c1OP(N)(=O)Oc1c(C)cccc1C | 1.99% | – | – |
| Nc1nonc1OCCCCOc1nonc1N | -9.72% | 0.651 µM [falling, full curve, poor fit] | – |
| Cc1cccc(-n2c(O)c(/C=C/C=Nc3ccccc3)c(=O)[nH]c2=O)c1 | – | 0.58 µM [falling, full curve] | – |
| CC1=C(C(=O)Nc2ccccc2)SCCO1 | – | 0.00461 µM [falling, full curve, poor fit] | – |
| N=c1ccccn1Cc1ccccc1 | -36.5% | 4.11 µM [falling, full curve] | 2.31 µM [falling, partial curve] |
| CN1CCC(=O)N(CCN=[N+]=[N-])CC1 | 31.1% | – | 16.4 µM [rising, partial curve, poor fit] |
| Cc1ccc2occ(CN3CC4CC(C3)c3cccc(=O)n3C4)c(=O)c2c1 (stereo not given) | -0.209% | 18.4 µM [rising, single point] | – |
| CC(C)[C@H](NC(=O)N1C[C@H]2C[C@@H](C1)c1cccc(=O)n1C2)C(=O)Nc1ccccc1F | -18.9% | 0.366 µM [falling, full curve, poor fit] | – |
| O=P(Nc1ccccc1)(Nc1ccccc1)Oc1ccc(Cl)cc1 | -0.811% | – | – |
| CC(C)OP(=O)(c1ccc(N(C)C)cc1)C(O)c1ccncc1 (stereo not given) | – | – | 1.84 µM [rising, partial curve] |

Taken from above:
For AC50 [1], Cc1ccc2occ(CN3CC4CC(C3)c3cccc(=O)n3C4)c(=O)c2c1 (stereo not given) reads 18.4 µM [rising, single point]
For AC50 [2], Cc1cccc(C(=O)N(NC(=O)Oc2ccccc2)C(C)(C)C)c1 reads 6.51 µM [rising, single point]
For cell number change, O=C1CN(O)C(c2ccccc2)=c2cc(Br)ccc2=N1 reads 1.35%
For AC50 [2], CC(C)OP(=O)(c1ccc(N(C)C)cc1)C(O)c1ccncc1 (stereo not given) reads 1.84 µM [rising, partial curve]
For AC50 [1], CCN(CC)CCCC(C)N=C(c1ccccc1)c1c(O)n(C)c(=O)n(C)c1=O (stereo not given) reads 0.00651 µM [falling, full curve, poor fit]

(more compounds)

| SMILES | cell number change | AC50 [1] | AC50 [2] |
| --- | --- | --- | --- |
| C=CCN1C(=O)NC(=O)/C(=C/C=C/c2ccccc2)C1=O | -63% | 29.1 µM [falling, single point] | 23.1 µM [falling, single point] |
| Cc1ccc(C(O)P(=O)(Oc2ccccc2)Oc2ccccc2)cc1 (stereo not given) | 7.33% | 0.0231 µM [falling, full curve, poor fit] | – |
| COC(=O)c1ccccc1OP1(=O)COc2ccccc2OC1 | -23.2% | 2.59 µM [falling, full curve] | – |
| COc1ccc(Cn2c(O)c(/C=N/NC(=O)c3ccccc3)c(=O)[nH]c2=O)cc1 | 10.7% | 0.291 µM [rising, full curve] | – |
| COc1ccccc1N1CCN(CCc2ccccc2)CC1 | -3.45% | 4.61 µM [rising, single point] | – |
| c1ccc(NC2=NCCS2)cc1 | 13.7% | – | – |
| Cc1cc(=O)oc2c(C)c(OCC(=O)N3CCC(C(=O)O)(c4ccccc4)CC3)ccc12 | 9.46% | 3.26 µM [falling, partial curve] | – |
| COc1cccc(N2C(=O)CC(=O)NC2=O)c1 | -26.5% | 0.517 µM [falling, full curve] | – |
| CCOC(=O)c1c(-n2c(C)cc(C=C3C(=O)NC(=S)NC3=O)c2C)sc2c1CCCC2 | – | 29.1 µM [falling, partial curve] | – |
| CCOc1ccccc1-n1c(O)c(C=NCc2ccc3c(c2)OCO3)c(=O)[nH]c1=O | 4.1% | 4.61 µM [rising, single point] | – |
| CCN1CCN(C(=O)Cc2coc3ccc4ccccc4c23)CC1 | 30.6% | – | 29.1 µM [rising, single point] |
| COc1ccccc1-n1c(/C=C/c2ccccn2)nc2ccccc2c1=O | 19.6% | 5.8 µM [rising, partial curve] | – |
| Cn1c(O)c(C=NCCOc2ccc(Cl)cc2)c(=O)n(C)c1=O | 41.6% | – | 25.9 µM [rising, single point] |
| CCOC(=O)C1CCN(/C=C2/C(=O)NC(=S)N(c3cccc(OC)c3)C2=O)CC1 | -36.4% | 29.1 µM [falling, single point] | 18.4 µM [falling, single point] |
| CCn1c(O)c(C=Nc2ccc(S(N)(=O)=O)cc2)c(=O)[nH]c1=S | 63.5% | 29.1 µM [rising, single point] | 18.4 µM [rising, single point] |
| CN(C)C(CNC(=O)Cc1c(Cl)cccc1Cl)c1ccccc1 (stereo not given) | 0.137% | 0.231 µM [rising, full curve, poor fit] | – |
| COc1ccc(OCC(=O)Nc2ccc(Cl)cc2C(=O)c2ccccc2)cc1 | 1.81% | 29.1 µM [falling, single point] | – |
| COC(=O)C1=C(c2ccc(OCc3ccccc3)cc2)C[C@@H]2CC[C@H]1N2C(=O)NCc1cccc(OC)c1 | -6.14% | – | – |
| CCOc1ccc(N2C(=O)/C(=C/c3ccco3)C(=O)NC2=S)cc1 | 8.39% | 29.1 µM [rising, single point] | – |
| Cc1cccc(C2=NCC(=O)N(CC(=O)NCc3ccco3)c3sc4c(c32)CCCC4)c1 | – | 6.51 µM [falling, partial curve, poor fit] | 5.17 µM [falling, partial curve, poor fit] |
